Test results published in PMC8245568, “Xyloglucan processing machinery in Xanthomonas pathogens and its role in the transcriptional activation of virulence factors” (Nature Communications, 2021).
Results are given in words; binding and its absence hold for the method and conditions named.

Biological target: XacGalD S106R mutant (Xanthomonas citri pv. citri 306)
Test: SEC-MALS; 25 °C; Superdex 200 HR 10/300 GL; 250 μL of protein at 50 μmol L^-1 injected; 20 mmol L^-1 HEPES pH 7.5, 150 mmol L^-1 NaCl; both purified

Substance: XacGalD S106R mutant (from UniProt A0AAI7ZEX2 73-585) (enzyme)
- binding: no binding (tested: 50 μmol L^-1)
